The target in assay [1] is Human LH2 recombinant protein (residues 33-758) L735D (human) (UniProt O00469). Kind of assay: SEC-MALS; Human LH2 proteins, 2 mg/ml, 100 ul, Superdex 200; 20 mM Tris pH 8, 200 mM NaCl, 0.02% sodium azide, room temperature; both purified.
Assay [2] addresses Human LH2 recombinant protein (residues 33-758) D689A (human) (UniProt O00469). Described as above.

These are yes or no findings as the source states them, for the method shown.

B1: Human LH2 recombinant protein (residues 33-758) L735D (enzyme, UniProt O00469-2 33-758)
chain: SIPTDKLLVITVATKESDGFHRFMQSAKYFNYTVKVLGQGEEWRGGDGINSIGGGQKVRLMKEVMEHYADQDDLVVMFTECFDVIFAGGPEEVLKKFQKANHKVVFAADGILWPDKRLADKYPVVHIGKRYLNSGGFIGYAPYVNRIVQQWNLQDNDDDQLFYTKVYIDPLKREAINITLDHKCKIFQTLNGAVDEVVLKFENGKARAKNTFYETLPVAINGNGPTKILLNYFGNYVPNSWTQDNGCTLCEFDTVDLSAVDVHPNVSIGVFIEQPTPFLPRFLDILLTLDYPKEALKLFIHNKEVYHEKDIKVFFDKAKHEIKTIKIVGPEENLSQAEARNMGMDFCRQDEKCDYYFSVDADVVLTNPRTLKILIEQNRKIIAPLVTRHGKLWSNFWGALSPDGYYARSEDYVDIVQGNRVGVWNVPYMANVYLIKGKTLRSEMNERNYFVRDKLDPDMALCRNAREMTLQREKDSPTPETFQMLSPPKGVFMYISNRHEFGRLLSTANYNTSHYNNDLWQIFENPVDWKEKYINRDYSKIFTENIVEQPCPDVFWFPIFSEKACDELVEEMEHYGKWSGGKHHDSRISGGYENVPTDDIHMKQVDLENVWLHFIREFIAPVTLKVFAGYYTKGFALLNFVVKYSPERQRSLRPHHDASTFTINIALNNVGEDFQGGGCKFLRYNCSIESPRKGWSFMHPGRDTHLHEGLPVKNGTRYIAVSFIDP
For B1, the binding entry in assay [1] is given as “no binding (tested: 2 mg ml^-1 injected)”.

B2: Human LH2 recombinant protein (residues 33-758) D689A (enzyme, UniProt O00469-2 33-758)
chain: SIPTDKLLVITVATKESDGFHRFMQSAKYFNYTVKVLGQGEEWRGGDGINSIGGGQKVRLMKEVMEHYADQDDLVVMFTECFDVIFAGGPEEVLKKFQKANHKVVFAADGILWPDKRLADKYPVVHIGKRYLNSGGFIGYAPYVNRIVQQWNLQDNDDDQLFYTKVYIDPLKREAINITLDHKCKIFQTLNGAVDEVVLKFENGKARAKNTFYETLPVAINGNGPTKILLNYFGNYVPNSWTQDNGCTLCEFDTVDLSAVDVHPNVSIGVFIEQPTPFLPRFLDILLTLDYPKEALKLFIHNKEVYHEKDIKVFFDKAKHEIKTIKIVGPEENLSQAEARNMGMDFCRQDEKCDYYFSVDADVVLTNPRTLKILIEQNRKIIAPLVTRHGKLWSNFWGALSPDGYYARSEDYVDIVQGNRVGVWNVPYMANVYLIKGKTLRSEMNERNYFVRDKLDPDMALCRNAREMTLQREKDSPTPETFQMLSPPKGVFMYISNRHEFGRLLSTANYNTSHYNNDLWQIFENPVDWKEKYINRDYSKIFTENIVEQPCPDVFWFPIFSEKACDELVEEMEHYGKWSGGKHHDSRISGGYENVPTDDIHMKQVDLENVWLHFIREFIAPVTLKVFAGYYTKGFALLNFVVKYSPERQRSLRPHHAASTFTINIALNNVGEDFQGGGCKFLRYNCSIESPRKGWSFMHPGRLTHLHEGLPVKNGTRYIAVSFIDP
Turning to B2, the binding entry in assay [2] is “no binding (tested: 2 mg ml^-1 injected)”.

The record behind these values is article PMC5802723, “Pro-metastatic collagen lysyl hydroxylase dimer assemblies stabilized by Fe^2+-binding” (Nature Communications, 2018).
